Counter-ions that a name gives are not always drawn. The list shows a part of the results. Repeats in this data set agree poorly, so a single value says little.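 In a drug-repurposing library screen, luminescence reads luciferase driven by eight TEAD-binding elements, stably integrated into human kidney-derived cells. Compounds scoring over five robust Z scores above the plate mean are called hits.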
System: HEK293A TEAD-LUC reporter
Assay: TEAD-luciferase reporter activity (YAP activation), robust Z score vs plate; higher = stronger YAP/TEAD activation
Conditions: 24 h

Structure (SMILES)	TEAD-luciferase reporter activity (compound concentration: 200 nM)	TEAD-luciferase reporter activity (compound concentration: 2 uM)	TEAD-luciferase reporter activity (compound concentration: 10 uM)
CCc1nn(Cc2ccc(-c3ccccc3-c3nnn[nH]3)cc2)/c(=N/C(=O)C2=C(C(=O)O)CCC2)s1	inactive: -2.45	inactive: -0.988	inactive: 0.169
COC(=O)C1=C(C)NC(C)=C(C(=O)OCCN(C)Cc2ccccc2)C1c1cccc([N+](=O)[O-])c1 (stereo unspecified) [Nicardipine]	inactive: 0.0283	inactive: -1.17	inactive: -1.07
COC(=O)C1=C(C)NC(C)=C(C(=O)OCCN(C)Cc2ccccc2)C1c1cccc([N+](=O)[O-])c1 (stereo unspecified) [nicardipine SR]		inactive: -2.75	
O=C(CCn1c(CN2CCN(C/C=C/c3ccccc3)CC2)nc2ccccc21)c1ccco1 [fuprazole]	inactive: -0.735	inactive: -0.353	
COc1cc(F)c(F)c(Nc2ccc(I)cc2F)c1NS(=O)(=O)C1(C[C@H](O)CO)CC1 [Refametinib]	inactive: -2.53	inactive: -0.818	inactive: -0.814
CC(C)NCC(O)COC1CCC(C(C)(C)C)CC1 (stereo unspecified)	inactive: 2.1	inactive: -0.748	inactive: -0.427
O=C(N[C@H]1[C@H](OC(=O)c2cccnc2)O[C@H](COC(=O)c2cccnc2)[C@@H](OC(=O)c2cccnc2)[C@@H]1OC(=O)c1cccnc1)c1cccnc1	inactive: 0.908	inactive: -0.699	inactive: 1.69
CN(C)CCCC(=O)N1Cc2ccccc2CC2(CCCCN2CC2CCNCC2)C1 (stereo unspecified)	inactive: -0.84		inactive: -0.535
O=C(NC1CCN(c2nc3ncccc3o2)CC1)C1CC1	inactive: 1.41		inactive: 4.71
CCOC(=O)c1ncn2c1CN(C)C(=O)c1cc(F)ccc1-2	inactive: 1.06		inactive: 1.97
CCOC(=O)c1ncn2c1CN(C)C(=O)c1cc(F)ccc1-2 [flumazenil]		inactive: -0.977	
COc1ccc(CN2CCN(c3ccc(Br)c(OC)n3)CC2)cc1OC	inactive: 0.842	inactive: -0.604	inactive: 1.35
O=C1CCCN1CCCCN1CCN(c2cc(C(F)(F)F)ccn2)CC1	inactive: -1.68	inactive: 1.35	inactive: 1.31
c1ccc(C2=N[C@@H](c3ccccc3)[C@@H](c3ccccc3)N2)cc1	inactive: -0.952	inactive: -2.13	inactive: -0.365
CC(C(=O)O)c1ccc(-c2cn3ccccc3n2)cc1 (stereo unspecified) [miroprofen]	inactive: 1.51	inactive: -2.46	inactive: 1.61
CN(N=O)C(=O)NC1C(O)OC(CO)C(O)C1O (stereo unspecified) [Streptozocin]	inactive: -1.2	inactive: -1.16	inactive: -0.199
Cc1[nH]c2cccc(OCC(O)CNCCOc3ccccc3)c2c1Cl (stereo unspecified) [indopanolol]	inactive: 0.0928	inactive: -0.483	inactive: 3.41
CC(=O)N[C@@H](CNC(=O)[C@@H]1CCCN(C(=O)CCC2CCNCC2)C1)C(=O)O	inactive: 0.137	inactive: -0.0501	inactive: 1.55
OCc1ccccc1	inactive: 0.242	inactive: -0.688	inactive: 0.984
O=C(O)Cc1ccc(OCc2ccccc2)c(Cl)c1 [Benzofenac]	inactive: -1.95	inactive: 0.0423	inactive: -0.156

Structure (SMILES)	TEAD-luciferase reporter activity (compound concentration: 200 nM)	TEAD-luciferase reporter activity (compound concentration: 2 uM)	TEAD-luciferase reporter activity (compound concentration: 10 uM)
CC(C)[C@@H]1NC(=O)[C@H](CCCNC(=N)N)NC(=O)[C@H](CCC(N)=O)NC(=O)[C@H](Cc2cnc[nH]2)NC(=O)[C@H](CCC(=O)O)NC(=O)[C@@H]2CCCN2C(=O)[C@H](CO)NC(=O)[C@H](CCC(N)=O)NC1=O	inactive: -1.26	inactive: 2.93	inactive: 2.05
CCN/C(=N\S(=O)(=O)c1ccc(CNC(=O)c2ccccc2)s1)N1CC(CC)C=N1 (stereo unspecified)	inactive: -0.752	inactive: -0.683	inactive: 0.353
CC1(C)[C@H](C(=O)O)N2C(=O)C[C@H]2S1(=O)=O [Sulbactam]	inactive: 0.414		inactive: 0.187
CC1(C)[C@H](C(=O)O)N2C(=O)C[C@H]2S1(=O)=O [sulbactam]		inactive: 0.023	
Cc1ccc(S(=O)(=O)NC(=O)N2CCC(N3CCC(Oc4ccc(Cl)c(Cl)c4)CC3)CC2)cc1	inactive: 1.08	inactive: 0.913	inactive: 1.19
CC1=NOC2(CCN(C(=O)c3ccc4c(c3)OCO4)CC2)C1	inactive: -0.221		inactive: 2.4
C[C@@H]1CCCN1CCCOc1ccc(-c2ccc(=O)[nH]n2)cc1	inactive: -1.21	inactive: -1	inactive: 1.39
NC(=O)N1c2ccccc2CC(=O)c2ccccc21	inactive: -1.6		inactive: -0.472
NC(=O)N1c2ccccc2CC(=O)c2ccccc21 [oxcarbazepine MR]		inactive: -1.53	
C[C@H]1C[C@H]2[C@@H]3CCC4=CC(=O)C=C[C@]4(C)[C@H]3C(=O)C[C@]2(C)[C@@]1(O)C(=O)CO		inactive: -1.01	
C[C@H]1C[C@H]2[C@@H]3CCC4=CC(=O)C=C[C@]4(C)[C@H]3C(=O)C[C@]2(C)[C@@]1(O)C(=O)CO [Betapar (Meprednisone)]	inactive: -0.232		inactive: 0.0996
CCOC(=O)CCc1ccccc1OC[C@@H](O)CNC(C)C	inactive: -0.8	inactive: -0.208	inactive: -0.263
COC(=O)C1=C(C#N)NC(C)=C(C(=O)OC(C)C)C1c1cccc([N+](=O)[O-])c1 (stereo unspecified) [nilvadipine]	inactive: -0.294	inactive: -0.389	inactive: -1.1
O=C1c2ccccc2CN2C(=O)c3ccccc3CN12 [diftalone]	inactive: -0.844	inactive: 4.19	inactive: -0.596
Cc1c(C(=O)c2ccccc2)c(=O)n(C)c(=O)n1C	inactive: -1.54	inactive: -1.04	inactive: 1.3
COc1cc(CCCCN2CCCN(CCCCc3cc(OC)c(OC)c(OC)c3)CC2)cc(OC)c1OC	inactive: -1.45	inactive: -0.831	inactive: -0.0597
CN(C(=O)c1ccc(F)cc1C(F)(F)F)C1CCN(c2nnc(-c3ccnn3C)c3ccccc23)CC1 [Taladegib hydrochloride]	inactive: -0.892	inactive: -0.838	inactive: -0.826
CC(=O)OCC(=O)[C@H]1CCC2C3CC=C4C[C@@H](O)CC[C@]4(C)C3CC[C@@]21C (stereo partly specified)	inactive: -1.16	inactive: -0.81	inactive: 1.75
N[C@@H](CSCC(=O)O)C(=O)O [carbocisteine, Sopar]	inactive: -0.695		inactive: 0.881
CCC(C(=O)NC(N)=O)c1ccccc1 (stereo unspecified)	inactive: 1.18	inactive: -1.65	inactive: 0.612

Copied from the list.
Under TEAD-luciferase reporter activity (compound concentration: 2 uM), CC(=O)OCC(=O)[C@H]1CCC2C3CC=C4C[C@@H](O)CC[C@]4(C)C3CC[C@@]21C (stereo partly specified) shows inactive: -0.81
Under TEAD-luciferase reporter activity (compound concentration: 200 nM), NC(=O)N1c2ccccc2CC(=O)c2ccccc21 shows inactive: -1.6
Under TEAD-luciferase reporter activity (compound concentration: 10 uM), Cc1ccc(S(=O)(=O)NC(=O)N2CCC(N3CCC(Oc4ccc(Cl)c(Cl)c4)CC3)CC2)cc1 shows inactive: 1.19

Additional entries follow:

Structure (SMILES)	TEAD-luciferase reporter activity (compound concentration: 200 nM)	TEAD-luciferase reporter activity (compound concentration: 2 uM)	TEAD-luciferase reporter activity (compound concentration: 10 uM)
COc1cccc(CCc2ccccc2OCC[C@H]2C[C@@H](O)CN2C)c1	inactive: -0.832	inactive: -0.988	inactive: -0.297
CCCC=C1NN(c2ccccc2C(F)(F)F)C(=O)N1Cc1ccc(-c2ccccc2S(=O)(=O)NC(=O)c2sccc2C)cc1	inactive: 3.24	inactive: 3.51	active: 9.32
COc1cc2nc(N(C)CCCNC(=O)C3CCCO3)nc(N)c2cc1OC (stereo unspecified) [alfuzosin]		inactive: -0.402	
COc1cc2nc(N(C)CCCNC(=O)C3CCCO3)nc(N)c2cc1OC (stereo unspecified)	inactive: -3.15		inactive: 0.289
Nc1ccc(C(=O)Oc2ccccc2)c(O)c1	inactive: -0.892	inactive: 2.46	inactive: 2.55
Oc1cc(O)c(Cl)cn1 [Gimeracil]	inactive: -0.916	inactive: 0.0738	inactive: -0.429
C[C@H](NC(=O)c1c(N)nn2cccnc12)c1cc2cccc(C#Cc3cnn(C)c3)c2c(=O)n1-c1ccccc1	inactive: 0.0691	inactive: -0.278	inactive: 1.37
CNC1CCCc2c(OC)ccc(Cl)c21 (stereo unspecified)	inactive: 0.622	inactive: -0.899	inactive: -0.27
Nc1ccn([C@@H]2C(F)=C(CO)[C@@H](O)[C@H]2O)c(=O)n1	inactive: -0.508	inactive: 0.864	inactive: 1.56
CC(=O)c1ccc2c(c1)c1cc(C(C)=O)ccc1n2CCNC(C)C	inactive: 1.34	inactive: -1.73	active: 5.48
CN(C)CCCOC(CCCCc1ccccc1)c1ccccc1 (stereo unspecified)	inactive: 0.952	inactive: -1.23	inactive: -0.299
CCN(CC)CC(=O)Nc1c(C)cccc1C(=O)OC	inactive: -0.329	inactive: -0.318	inactive: 0.0174
CC(C)=CCc1c(O)cc(O)c2c(=O)c(O)c(-c3ccc(C(F)(F)F)cc3)oc12	inactive: -0.427	inactive: 1.33	inactive: 2.45
CC(=O)Oc1ccc(/N=N/c2ccc(S(=O)(=O)Nc3nc(C)cc(C)n3)cc2)cc1C(=O)O [disalazine]	active: 5.96	inactive: -1.3	inactive: -3.06
CC1CCCN(Cc2cccc(OCCCNC(=O)c3ccc[n+]([O-])c3)c2)C1 (stereo unspecified)	inactive: -2.13	inactive: -0.639	inactive: 2.08
CC(C)C[C@H](NC(=O)[C@@H]1CCCC(=O)N1)C(=O)N1CCC[C@H]1C(N)=O	inactive: -0.094	inactive: -1.15	inactive: 2.73
C[C@H](c1ccc(F)cc1CCCC(=O)O)N(c1cc(F)ccc1F)S(=O)(=O)c1ccc(Cl)cc1	inactive: 0.173	inactive: -1.17	inactive: 3.52
O=C(NC1CCCC1)NC1CCN(c2nc3ncccc3o2)CC1	inactive: -1.13		inactive: 1.42

— the supplement of paper PMC10735217
